# No constants are given. Whether binding was seen depends on the method and setting. Some results given as binding are weak or reduced against the parent protein; the word gives no strength.
# Chains of the proteins cited; added tags and fusions are not shown. Lines headed by an entry give the natural chain unless they say otherwise; changes in a name come on top.
# UniProt Q07011: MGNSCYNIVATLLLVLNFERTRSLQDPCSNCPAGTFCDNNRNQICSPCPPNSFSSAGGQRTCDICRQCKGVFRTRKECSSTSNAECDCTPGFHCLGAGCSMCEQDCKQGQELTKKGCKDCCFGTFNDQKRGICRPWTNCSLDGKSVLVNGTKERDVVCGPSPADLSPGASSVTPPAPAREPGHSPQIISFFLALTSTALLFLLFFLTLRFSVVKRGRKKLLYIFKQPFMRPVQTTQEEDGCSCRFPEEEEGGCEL
# B1: 4.1-6GS-1.113 (bispecific antibody)
# chain: EVQLVESGGGVVQPGRSLRLSCAASGFSFSGYGMHWVRQAPGKGLEWVAYISYDGSNKYYADSVKGRFTISRDNSKNTLYLQMNSLRAEDTAVYYCAKDPAWGLRLGESSSYDFDIWGQGTMVTVSSGGGGSGGGGSGGGGSGGGGSGGGGSGGGGSEVQLVESGGGLVQPGGSLRLSCAASGFTLSNYWMNWVRQAPGKGLEWVANINQDGSERYYVDSVKGRFTISRDNAKNSLYLQMNSLRAEDTAVYYCARGGEGYGVDHYGLDVSGQGTTVTVSS
# Target: human CD137 expressed on cells (human) (UniProt Q07011)
# Assay: flow cytometry, pre-stimulated human CD8+ T cells, biotinylated-PSMA detection
binder,measurement,value
B1,binding,binds

# Source: patent US20200362051A1
